PubChem BioAssay AID493014 (National Center for Advancing Translational Sciences (NCATS), 2011)
The other results are listed elsewhere or left out. Shown are side measurements of this screen, not its main read-out; they come without a call. The list favours compounds with an active or inconclusive main result. Words in brackets tell the shape of the fitted curve; partial curves, single points and poor fits give uncertain potencies.

Assay: qHTS Assay to Find Inhibitors of Chronic Active B-Cell Receptor Signaling
Details: ABC-DLBCL IkBa-CBG/CBR reporter, luminescence ratio (green luciferase fused to IkBa over red control in TMD8 lymphoma cells), 4 h
How it was run: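 Cell line TMD8 (human ABC DLBCL), stably expressing tet-inducible CBG68-IkBa fusion and CBR; IMDM/0.5% FBS; cpd up to 46 uM; dox induction, 4 h, 37C/5% CO2; dual luminescence; green/red ratio; MG132 control.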

[1] = measured here: CBR red luminescence, cell number

Structure (SMILES) | AC50 [1] | AC50 (measured here: IkBa-CBG green luminescence)
COc1ccc(/C=C/c2nc(-c3ccccc3O)n[nH]2)cc1 | 3.26 µM [falling, partial curve] | –
CCOc1ccc(-n2cnnn2)cc1S(=O)(=O)NCc1ccccc1 | 0.058 µM [rising, full curve, poor fit] | –
Cc1cccc(N(C)C(=O)c2cc3cc4ccc(C)cc4nc3o2)c1 | 2.91 µM [rising, single point] | –
CCOC(=O)c1ccc(NC2Nc3cc(C)nn3S2)cc1 (stereo not drawn) | 17.8 µM [rising, partial curve, poor fit] | –
c1ccc(CCSc2nccn2-c2ccccc2)cc1 | 12.6 µM [falling, single point] | –
CCCOC(=O)c1c(NC(=O)/C=C/c2cnn(C)c2C)sc(C(=O)OCC)c1C | 14.1 µM [falling, single point] | –
O=C(Cc1cccs1)NCc1ccccc1F | 23.1 µM [rising, partial curve, poor fit] | –
Cc1ccc(C(=O)NC2CCCCNC2=O)cc1C (stereo not drawn) | 35.5 µM [falling, single point] | –
O=[N+]([O-])c1ncccc1OCc1ccc(Cl)c(Cl)c1 | 10 µM [rising, partial curve] | –
COc1ccc(C)cc1NC(=O)c1cc2c(=O)n3ccccc3nc2n1C | 3.55 µM [rising, single point] | –
COc1ccc(N=Cc2[nH]c3ccccc3c2O)cc1 | 17.8 µM [falling, partial curve, poor fit] | –
COc1ccc(/C=N/Nc2cc(C)nc3ccc(OC)cc23)c(OC)c1 | 22.4 µM [falling, single point] | –
CSc1nc(C)c2cc(C)oc2n1 | 2.31 µM [falling, partial curve, poor fit] | –
CCCCC(=O)NC(c1ccco1)c1cc(Cl)c2cccnc2c1O (stereo not drawn) | 1.41 µM [falling, partial curve, poor fit] | –
CO/N=C/c1ccc(Sc2ccccc2)c([N+](=O)[O-])c1 | 16.4 µM [rising, partial curve] | –
Cc1cccc(-n2c(N)cc(=O)nc2SC(C)C(=O)NC2CCCCC2)c1 (stereo not drawn) | 0.355 µM [rising, partial curve, poor fit] | –
O=C(CSCc1ccc(F)cc1)NCc1ccco1 | 20.6 µM [rising, single point] | –
CCN(CC)S(=O)(=O)c1cc([N+](=O)[O-])ccc1NNC(=O)Nc1ccc(Cl)c(Cl)c1 | 20.6 µM [falling, single point] | 20.6 µM [rising, partial curve, poor fit]
Cc1ccccc1C(=O)N/N=C/c1ccncc1 | 11.2 µM [falling, partial curve] | –
O=[N+]([O-])c1cc(S(=O)(=O)NCCN2CCOCC2)ccc1Sc1nnnn1-c1ccccc1 | 32.6 µM [falling, single point] | –
COc1ccc2[nH]c3c(=O)n(CCN4CCOCC4)cnc3c2c1 | 20 µM [rising, single point] | –

Structure (SMILES) | AC50 [1] | AC50 (measured here: IkBa-CBG green luminescence)
NS(=O)(=O)c1ccc(CCNC(=O)Nc2ccc(Cl)c(Cl)c2)cc1 | 16.4 µM [falling, single point] | –
O=C(COC(=O)COc1ccccc1[N+](=O)[O-])NC1CCCC1 | 1.03 µM [rising, full curve, poor fit] | –
Cc1ccc(OCCSCc2nnc(NC(=O)Nc3cccc(Cl)c3)s2)cc1 | 10.3 µM [rising, partial curve] | –
COc1ccc(NC(=O)c2ccccc2SC)cc1OC | 10.3 µM [falling, partial curve, poor fit] | –
O=C(NCc1ccco1)c1ccc(S(=O)(=O)N2CCCc3ccccc32)cc1 | 23.1 µM [falling, partial curve, poor fit] | –
Cc1ccc(S(=O)(=O)N2CCC(C(=O)N[C@@H](Cc3ccccc3)C(=O)O)CC2)cc1 | 6.51 µM [rising, single point] | –
COc1ccc(-c2n(CC(=O)OC3CC(C)CCC3C(C)C)c3ccccc3[n+]2C)cc1 (stereo not drawn) | 11.2 µM [rising, partial curve, poor fit] | –
O=C(CCS(=O)(=O)c1ccccc1)Nc1ccccc1F | 35.5 µM [falling, single point] | –
COc1ccc(-c2csc(NC(=S)NC(=O)/C=C/c3ccco3)n2)cc1OC | 29.1 µM [rising, single point] | –
CCCC(=O)Nc1ccc2c(c1)nc1n2CCN(CCOC)C1 | 31.6 µM [rising, partial curve, poor fit] | –
Clc1cccc(NC2=NCCC2)c1 | 29.1 µM [rising, single point] | –
Cc1csc(NC(=O)CSc2nnc(Cc3cccn3C)n2-c2ccc(F)cc2)n1 | 18.4 µM [falling, partial curve] | –
Cn1c(Cn2c(=O)sc3ccccc32)nnc1SCC(=O)NC1CCCC1 | 32.6 µM [rising, single point] | –
COc1cc(CN2CCc3ccc(NC(=O)CCc4ccccc4OC)cc3C2)ccc1O | 22.4 µM [falling, single point] | –
COc1ccc(CN(CC(=O)NCc2ccccc2)C(=O)CCC(=O)Nc2cc(C)ccn2)cc1 | 1.26 µM [rising, full curve] | –
O=C(NNS(=O)(=O)c1ccccc1)c1ccc(O)cc1 | 11.6 µM [falling, partial curve] | –
COc1ccc(NC(=O)c2ccccc2NC(=O)c2ccccc2C(=O)O)c(OC)c1 | 22.4 µM [falling, single point] | –
Cc1ncc(CO)c2c1Oc1nc(-c3ccccc3)nc(SCC(=O)N3CCCCC3)c1C2 | 0.891 µM [rising, full curve, poor fit] | –
CCOC(=O)C1CCN(C(=O)COC(=O)/C=C/c2cccc(OC)c2OC)CC1 | 20.6 µM [rising, partial curve, poor fit] | –
COc1ccc(Cl)cc1Nc1nc(N)c2ccccc2n1 | 0.112 µM [rising, full curve, poor fit] | –
O=[N+]([O-])c1cccnc1NCCNc1ncc(C(F)(F)F)cc1Cl | 5.01 µM [rising, partial curve] | –

Record cards (already shown). Values in the order: AC50 [1]	AC50 (measured here: IkBa-CBG green luminescence)
COc1cc(CN2CCc3ccc(NC(=O)CCc4ccccc4OC)cc3C2)ccc1O is listed with 22.4 µM [falling, single point]	–
Cc1ccc(OCCSCc2nnc(NC(=O)Nc3cccc(Cl)c3)s2)cc1 is listed with 10.3 µM [rising, partial curve]	–
Cc1csc(NC(=O)CSc2nnc(Cc3cccn3C)n2-c2ccc(F)cc2)n1 is listed with 18.4 µM [falling, partial curve]	–
